Source: PubChem BioAssay AID1224827 (NIAID, 2016)

Test: 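Identify regulators of the macrophage TNF-alpha response to bacterial LPS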 (follow-up of hits)
Cells: RAW264.7 G9 mouse macrophage reporter clone
Reagents: single siRNA against mouse genes, 100 nM siRNA
Time to read-out: siRNA for 2 days, then LPS about 16 h
Treatment: bacterial lipopolysaccharide (LPS), 10 ng/ml, cells fixed after overnight (about 16 h) stimulation
Measured: 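Imaged nuclear TNF reporter intensity, background removed, scaled per plate and to non-targeting control wells, as z-scores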
Reading the numbers: TNF reporter z-score, mean and TNF reporter z-score: higher = stronger Tnf promoter reporter signal; gene median z, three same-vendor siRNAs: higher = stronger Tnf reporter signal for the gene
Active means: 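Active siRNA: replicate-mean z-score of 2 or more, or -2 or less; no calls for control wells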
The whole screen tested about 3,800 reagents; this is a part drawn at random. About 2,200 of all reagents (57%) count as active. 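Active means a strong reporter change in either direction; calls are per siRNA, not per gene; qiagen siRNAs gave weaker effects.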 No sequences are given here.

"TNF reporter z-score, mean","gene median z, three same-vendor siRNAs","TNF reporter z-score, repeat 1","TNF reporter z-score, repeat 2",outcome,target gene,PubChem SID
-0.918,-2.7,-2.06,0.223,inactive,Bpifb5,SID315488316
-2.7,-2.7,-3.04,-2.35,active,Bpifb5,SID315488317
-4.87,-2.7,-5.98,-3.76,active,Bpifb5,SID315488318
3.19,0.0887,5.75,0.632,active,Bpifb5,SID315488319
2.12,0.0887,4.7,-0.455,active,Bpifb5,SID315488320
-4.08,0.0887,-4.15,-4,active,Bpifb5,SID315488321
3.24,-3.85,3.53,2.94,active,Rlim,SID315484794
-4.23,-3.85,-3.79,-4.67,active,Rlim,SID315484795
-4.32,-3.85,-3.9,-4.73,active,Rlim,SID315484796
-0.794,-0.631,-1.67,0.0825,inactive,Rlim,SID315484797
-0.306,-0.631,0.29,-0.901,inactive,Rlim,SID315484798
-1.3,-0.631,-0.361,-2.25,inactive,Rlim,SID315484799
-2.26,-3.41,-2.47,-2.05,active,Ulk4,SID315488064
-3.41,-3.41,-3.29,-3.52,active,Ulk4,SID315488065
-5.04,-3.41,-3.9,-6.18,active,Ulk4,SID315488066
2.17,0.252,3.71,0.637,active,Ulk4,SID315488067
1.17,0.252,2.48,-0.134,inactive,Ulk4,SID315488068
-0.916,0.252,-0.984,-0.847,inactive,Ulk4,SID315488069
-2.5,-4.4,-3.25,-1.75,active,Tgs1,SID315487638
-3.77,-4.4,-2.01,-5.54,active,Tgs1,SID315487639
-5.78,-4.4,-5.62,-5.95,active,Tgs1,SID315487640
6.07,1.66,9.64,2.51,active,Tgs1,SID315487641
2.55,1.66,4.27,0.821,active,Tgs1,SID315487642
-2.99,1.66,-3.8,-2.18,active,Tgs1,SID315487643
2.85,-3,2.51,3.19,active,Ptpn13,SID315484725
-3.01,-3,-3.2,-2.81,active,Ptpn13,SID315484726
-3.39,-3,-3.2,-3.57,active,Ptpn13,SID315484727
1.88,-1.22,4.39,-0.625,inactive,Ptpn13,SID315484728
-0.904,-1.22,0.00992,-1.82,inactive,Ptpn13,SID315484729
-3.17,-1.22,-3.77,-2.58,active,Ptpn13,SID315484730
-1.77,-3.94,-2.79,-0.738,inactive,Cpt1b,SID315483987
-4.36,-3.94,-5.33,-3.4,active,Cpt1b,SID315483988
-5.31,-3.94,-6.13,-4.48,active,Cpt1b,SID315483989
1.66,1.66,2.68,0.646,inactive,Cpt1b,SID315483990
1.74,1.66,4.2,-0.713,inactive,Cpt1b,SID315483991
1.46,1.66,3.41,-0.504,inactive,Cpt1b,SID315483992
-4.08,-4.41,-3.92,-4.23,active,Med21,SID315487491
-4.32,-4.41,-4.59,-4.06,active,Med21,SID315487492
-5.61,-4.41,-5.46,-5.75,active,Med21,SID315487493
1.59,-0.492,3.25,-0.0599,inactive,Med21,SID315487494
-0.492,-0.492,-0.1,-0.884,inactive,Med21,SID315487495
-2.73,-0.492,-2.86,-2.6,active,Med21,SID315487496
-2.06,-2.84,-1.63,-2.49,active,Slc11a1,SID315484617
-2.68,-2.84,-3.18,-2.17,active,Slc11a1,SID315484618
-3.23,-2.84,-3.29,-3.18,active,Slc11a1,SID315484619
0.00946,-0.532,-0.105,0.124,inactive,Slc11a1,SID315484620
-0.766,-0.532,-0.818,-0.714,inactive,Slc11a1,SID315484621
-1.14,-0.532,-1.92,-0.35,inactive,Slc11a1,SID315484622
-1.78,-3.08,-1.53,-2.03,inactive,Or4a68,SID315488715
-2.19,-3.08,-4.13,-0.258,active,Or4a68,SID315488716
-4.73,-3.08,-4.47,-5,active,Or4a68,SID315488717
3.69,-1.8,6.24,1.14,active,Or4a68,SID315488718
-1.8,-1.8,-1.97,-1.62,inactive,Or4a68,SID315488719
-3.83,-1.8,-5.3,-2.35,active,Or4a68,SID315488720
0.686,-2.35,-0.0258,1.4,inactive,Dixdc1,SID315489021
-2.35,-2.35,-3.06,-1.63,active,Dixdc1,SID315489022
-4.75,-2.35,-4.77,-4.74,active,Dixdc1,SID315489023
3.4,-0.248,6.41,0.382,active,Dixdc1,SID315489024
0.907,-0.248,2.69,-0.878,inactive,Dixdc1,SID315489025
-1.31,-0.248,-1.51,-1.11,inactive,Dixdc1,SID315489026
